According to the supplement of paper PMC7666118:
The other results are listed elsewhere or left out.

Protein sequences, listed by entry. Tags and fused reporters are not part of them. Lines headed by an entry give the natural chain unless they say otherwise; changes in a name come on top.
UniProt Q92900: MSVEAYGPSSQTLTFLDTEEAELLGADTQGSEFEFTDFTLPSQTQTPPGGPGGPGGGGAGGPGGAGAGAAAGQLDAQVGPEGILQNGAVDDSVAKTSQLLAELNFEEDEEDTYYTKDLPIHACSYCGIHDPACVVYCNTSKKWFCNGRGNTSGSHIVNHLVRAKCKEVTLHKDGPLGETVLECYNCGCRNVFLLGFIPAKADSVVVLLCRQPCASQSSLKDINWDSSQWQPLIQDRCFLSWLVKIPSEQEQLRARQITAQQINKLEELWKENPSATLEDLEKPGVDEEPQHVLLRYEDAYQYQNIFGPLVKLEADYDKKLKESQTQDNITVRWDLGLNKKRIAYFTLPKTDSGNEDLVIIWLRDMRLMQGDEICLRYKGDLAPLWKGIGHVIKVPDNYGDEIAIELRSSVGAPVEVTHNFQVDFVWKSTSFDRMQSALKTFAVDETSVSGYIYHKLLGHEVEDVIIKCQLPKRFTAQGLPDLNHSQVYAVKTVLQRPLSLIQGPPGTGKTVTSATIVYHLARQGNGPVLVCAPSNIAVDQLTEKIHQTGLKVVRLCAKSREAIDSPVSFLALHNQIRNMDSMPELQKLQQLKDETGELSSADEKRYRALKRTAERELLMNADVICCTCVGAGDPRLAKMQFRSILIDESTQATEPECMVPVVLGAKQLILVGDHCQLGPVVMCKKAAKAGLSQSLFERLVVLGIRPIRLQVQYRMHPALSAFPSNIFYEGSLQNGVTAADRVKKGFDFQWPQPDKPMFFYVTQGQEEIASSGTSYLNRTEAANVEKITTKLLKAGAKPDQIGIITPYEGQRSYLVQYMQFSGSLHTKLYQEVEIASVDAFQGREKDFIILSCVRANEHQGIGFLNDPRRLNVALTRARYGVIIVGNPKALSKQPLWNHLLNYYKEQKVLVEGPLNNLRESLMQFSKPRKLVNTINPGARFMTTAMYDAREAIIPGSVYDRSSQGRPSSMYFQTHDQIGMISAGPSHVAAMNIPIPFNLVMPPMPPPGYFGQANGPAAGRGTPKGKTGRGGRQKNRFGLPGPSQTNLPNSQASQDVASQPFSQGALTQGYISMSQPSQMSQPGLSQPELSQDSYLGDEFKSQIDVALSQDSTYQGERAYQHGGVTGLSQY
UniProt Q13595: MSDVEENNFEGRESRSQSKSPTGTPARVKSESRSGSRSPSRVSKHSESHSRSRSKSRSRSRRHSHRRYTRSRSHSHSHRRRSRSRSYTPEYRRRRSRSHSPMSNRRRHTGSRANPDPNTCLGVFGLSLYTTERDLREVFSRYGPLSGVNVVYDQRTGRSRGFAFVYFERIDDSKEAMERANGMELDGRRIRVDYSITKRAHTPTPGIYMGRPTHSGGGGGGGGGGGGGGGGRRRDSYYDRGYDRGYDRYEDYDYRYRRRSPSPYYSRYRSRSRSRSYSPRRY
UniProt Q9NX01: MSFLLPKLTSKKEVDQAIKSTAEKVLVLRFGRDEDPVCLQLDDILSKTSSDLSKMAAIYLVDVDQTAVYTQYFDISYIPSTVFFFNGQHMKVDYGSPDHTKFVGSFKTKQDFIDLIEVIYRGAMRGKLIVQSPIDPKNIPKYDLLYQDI
UniProt P13051, whole entry: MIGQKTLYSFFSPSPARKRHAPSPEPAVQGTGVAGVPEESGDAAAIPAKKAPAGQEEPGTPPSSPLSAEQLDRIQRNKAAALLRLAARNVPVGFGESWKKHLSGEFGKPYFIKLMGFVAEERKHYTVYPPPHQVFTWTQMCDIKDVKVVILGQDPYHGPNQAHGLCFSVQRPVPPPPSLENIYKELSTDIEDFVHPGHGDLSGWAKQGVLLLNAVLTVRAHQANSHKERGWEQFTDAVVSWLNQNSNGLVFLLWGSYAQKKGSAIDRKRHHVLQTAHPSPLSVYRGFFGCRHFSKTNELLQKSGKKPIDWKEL
UniProt Q86VQ6, whole entry: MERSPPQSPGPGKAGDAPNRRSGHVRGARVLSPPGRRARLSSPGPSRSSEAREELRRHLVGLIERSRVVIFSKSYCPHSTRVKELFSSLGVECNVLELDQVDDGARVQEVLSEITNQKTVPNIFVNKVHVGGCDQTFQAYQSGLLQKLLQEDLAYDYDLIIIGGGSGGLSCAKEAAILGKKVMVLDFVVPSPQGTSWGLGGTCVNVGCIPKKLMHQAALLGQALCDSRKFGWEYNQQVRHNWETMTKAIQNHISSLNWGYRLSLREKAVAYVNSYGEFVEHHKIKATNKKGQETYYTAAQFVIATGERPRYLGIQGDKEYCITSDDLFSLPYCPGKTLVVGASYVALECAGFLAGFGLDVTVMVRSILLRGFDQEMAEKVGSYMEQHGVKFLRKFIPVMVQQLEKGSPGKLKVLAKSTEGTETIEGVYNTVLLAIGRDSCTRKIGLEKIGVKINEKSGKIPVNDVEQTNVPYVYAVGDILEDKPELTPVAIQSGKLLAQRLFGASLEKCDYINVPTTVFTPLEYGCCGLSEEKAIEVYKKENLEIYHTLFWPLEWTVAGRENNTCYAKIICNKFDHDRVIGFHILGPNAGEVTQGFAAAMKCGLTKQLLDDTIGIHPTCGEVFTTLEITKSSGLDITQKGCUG
UniProt Q99614: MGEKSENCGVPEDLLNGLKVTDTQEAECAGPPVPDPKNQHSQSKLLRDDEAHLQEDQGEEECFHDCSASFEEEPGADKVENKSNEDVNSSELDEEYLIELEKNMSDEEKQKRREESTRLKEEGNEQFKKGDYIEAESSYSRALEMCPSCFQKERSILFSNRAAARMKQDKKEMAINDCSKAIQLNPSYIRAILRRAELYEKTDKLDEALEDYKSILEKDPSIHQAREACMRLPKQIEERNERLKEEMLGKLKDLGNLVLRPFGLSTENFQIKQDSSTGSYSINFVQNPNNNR
UniProt Q8IZ69: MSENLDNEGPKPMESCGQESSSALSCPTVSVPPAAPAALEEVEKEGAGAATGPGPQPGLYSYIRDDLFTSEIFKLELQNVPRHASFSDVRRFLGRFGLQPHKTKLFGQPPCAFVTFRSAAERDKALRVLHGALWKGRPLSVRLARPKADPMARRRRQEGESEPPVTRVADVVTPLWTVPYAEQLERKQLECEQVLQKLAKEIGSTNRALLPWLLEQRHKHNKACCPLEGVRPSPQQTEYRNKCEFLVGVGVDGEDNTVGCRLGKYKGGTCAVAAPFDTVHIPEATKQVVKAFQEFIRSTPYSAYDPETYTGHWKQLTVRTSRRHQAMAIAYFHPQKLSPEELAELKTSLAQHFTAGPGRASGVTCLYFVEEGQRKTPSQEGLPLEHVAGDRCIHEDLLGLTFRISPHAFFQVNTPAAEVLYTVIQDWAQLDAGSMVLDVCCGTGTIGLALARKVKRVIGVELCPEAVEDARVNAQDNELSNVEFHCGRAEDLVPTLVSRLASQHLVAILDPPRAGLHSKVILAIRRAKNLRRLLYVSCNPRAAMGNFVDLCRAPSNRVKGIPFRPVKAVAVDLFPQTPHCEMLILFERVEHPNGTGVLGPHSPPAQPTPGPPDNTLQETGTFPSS
UniProt Q9BZI7: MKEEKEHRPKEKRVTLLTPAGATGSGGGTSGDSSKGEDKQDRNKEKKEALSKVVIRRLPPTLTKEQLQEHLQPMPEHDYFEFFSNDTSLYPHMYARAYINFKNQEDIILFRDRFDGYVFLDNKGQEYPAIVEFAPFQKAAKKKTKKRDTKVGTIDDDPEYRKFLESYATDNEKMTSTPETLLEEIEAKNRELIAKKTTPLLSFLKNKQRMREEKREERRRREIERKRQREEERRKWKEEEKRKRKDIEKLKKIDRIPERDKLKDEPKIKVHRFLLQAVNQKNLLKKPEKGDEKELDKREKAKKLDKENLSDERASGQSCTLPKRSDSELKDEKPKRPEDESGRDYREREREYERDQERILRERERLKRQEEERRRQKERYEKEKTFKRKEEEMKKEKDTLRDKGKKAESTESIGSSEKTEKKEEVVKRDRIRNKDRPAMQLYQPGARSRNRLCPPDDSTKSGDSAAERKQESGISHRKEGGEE
UniProt O43617, whole entry: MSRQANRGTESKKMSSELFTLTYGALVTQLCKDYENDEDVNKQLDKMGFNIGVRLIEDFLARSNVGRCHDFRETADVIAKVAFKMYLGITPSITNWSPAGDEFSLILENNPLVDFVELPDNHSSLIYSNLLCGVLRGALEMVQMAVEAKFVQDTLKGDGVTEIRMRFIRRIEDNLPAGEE
UniProt Q9BTX7: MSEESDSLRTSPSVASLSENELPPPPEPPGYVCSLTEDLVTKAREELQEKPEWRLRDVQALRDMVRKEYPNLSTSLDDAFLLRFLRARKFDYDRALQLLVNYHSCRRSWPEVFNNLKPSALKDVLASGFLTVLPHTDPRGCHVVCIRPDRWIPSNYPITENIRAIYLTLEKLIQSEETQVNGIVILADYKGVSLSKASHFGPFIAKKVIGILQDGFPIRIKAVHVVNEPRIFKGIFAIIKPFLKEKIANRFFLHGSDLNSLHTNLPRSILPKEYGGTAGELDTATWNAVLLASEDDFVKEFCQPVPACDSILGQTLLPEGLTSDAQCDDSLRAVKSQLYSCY
UniProt P62256: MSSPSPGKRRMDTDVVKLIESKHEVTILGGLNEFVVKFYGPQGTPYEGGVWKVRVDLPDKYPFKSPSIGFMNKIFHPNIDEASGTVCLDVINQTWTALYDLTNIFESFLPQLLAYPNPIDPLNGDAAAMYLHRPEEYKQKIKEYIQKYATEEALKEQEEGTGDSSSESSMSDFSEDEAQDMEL
UniProt P61960, whole entry: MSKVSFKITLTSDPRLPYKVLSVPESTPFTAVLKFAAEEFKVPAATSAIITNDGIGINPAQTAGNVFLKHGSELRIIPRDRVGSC
UniProt Q7Z6J9: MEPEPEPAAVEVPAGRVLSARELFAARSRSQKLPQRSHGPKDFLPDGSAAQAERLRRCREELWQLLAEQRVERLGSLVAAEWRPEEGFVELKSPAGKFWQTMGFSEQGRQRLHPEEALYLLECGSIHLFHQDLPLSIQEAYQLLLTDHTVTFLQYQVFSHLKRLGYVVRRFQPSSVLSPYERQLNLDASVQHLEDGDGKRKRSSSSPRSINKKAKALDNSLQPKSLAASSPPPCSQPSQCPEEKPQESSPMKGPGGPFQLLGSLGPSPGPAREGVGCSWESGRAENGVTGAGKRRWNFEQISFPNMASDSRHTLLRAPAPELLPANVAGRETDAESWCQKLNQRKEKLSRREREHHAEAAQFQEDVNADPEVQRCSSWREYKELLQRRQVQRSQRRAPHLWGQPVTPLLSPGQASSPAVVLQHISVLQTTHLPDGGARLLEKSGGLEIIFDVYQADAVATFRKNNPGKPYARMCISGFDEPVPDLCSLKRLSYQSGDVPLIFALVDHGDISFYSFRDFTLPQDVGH
UniProt Q14142: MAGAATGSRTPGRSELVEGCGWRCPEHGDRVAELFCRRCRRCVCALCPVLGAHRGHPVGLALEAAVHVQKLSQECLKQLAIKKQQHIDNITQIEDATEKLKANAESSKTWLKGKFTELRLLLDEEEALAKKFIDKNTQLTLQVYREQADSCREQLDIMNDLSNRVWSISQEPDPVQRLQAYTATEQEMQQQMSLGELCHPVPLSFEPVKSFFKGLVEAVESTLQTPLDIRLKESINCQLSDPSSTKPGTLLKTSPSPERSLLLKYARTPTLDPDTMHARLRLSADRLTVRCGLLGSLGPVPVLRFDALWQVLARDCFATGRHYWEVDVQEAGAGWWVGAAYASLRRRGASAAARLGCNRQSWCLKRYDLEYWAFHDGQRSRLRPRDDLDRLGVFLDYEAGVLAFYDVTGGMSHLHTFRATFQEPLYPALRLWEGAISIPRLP
UniProt Q12933: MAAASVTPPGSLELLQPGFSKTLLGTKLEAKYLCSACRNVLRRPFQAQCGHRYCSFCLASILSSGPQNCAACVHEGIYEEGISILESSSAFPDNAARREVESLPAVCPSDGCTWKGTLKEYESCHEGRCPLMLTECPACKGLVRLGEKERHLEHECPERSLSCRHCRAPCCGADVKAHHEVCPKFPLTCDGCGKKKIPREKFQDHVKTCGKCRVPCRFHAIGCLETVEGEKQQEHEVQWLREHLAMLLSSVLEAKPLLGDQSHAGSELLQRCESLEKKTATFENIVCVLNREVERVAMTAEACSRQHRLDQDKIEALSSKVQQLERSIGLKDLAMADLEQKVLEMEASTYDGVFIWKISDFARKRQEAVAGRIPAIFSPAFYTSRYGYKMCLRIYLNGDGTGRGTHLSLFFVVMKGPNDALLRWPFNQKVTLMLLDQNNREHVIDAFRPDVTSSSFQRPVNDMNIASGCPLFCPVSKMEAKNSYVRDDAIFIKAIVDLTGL
UniProt Q9BTM9: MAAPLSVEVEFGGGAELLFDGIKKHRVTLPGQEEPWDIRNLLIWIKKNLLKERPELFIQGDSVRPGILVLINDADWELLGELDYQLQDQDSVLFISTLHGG
UniProt O43396: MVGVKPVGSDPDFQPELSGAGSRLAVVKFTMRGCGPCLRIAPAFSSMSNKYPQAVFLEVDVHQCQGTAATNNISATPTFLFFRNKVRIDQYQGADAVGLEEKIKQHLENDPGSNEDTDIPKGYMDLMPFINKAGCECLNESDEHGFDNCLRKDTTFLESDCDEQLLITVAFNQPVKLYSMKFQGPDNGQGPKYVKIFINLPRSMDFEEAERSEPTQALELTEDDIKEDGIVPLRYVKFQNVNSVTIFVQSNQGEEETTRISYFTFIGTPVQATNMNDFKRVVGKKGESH

Compound: COc1ccc(Cn2ccc3ccc(C(=O)NO)cc32)cc1
Assay: dose-dependent thermal stabilisation call (2D-TPP, DLPTP, 10% FDR) (binary (1 = stabilised)); higher = stabilised by the compound
Settings: system: HL-60 intact cells; concentration range 0.04-10 µM

Question: Which “dose-dependent thermal stabilisation call” value does the source give for USF2 (UniProt Q15853) here?
Answer: inactive: 0

Question: For UPF1 (UniProt Q92900), which “dose-dependent thermal stabilisation call” value is on record?
Answer: inactive: 0

Question: How did the “dose-dependent thermal stabilisation call” value turn out when TSR2 (UniProt Q969E8) was run?
Answer: inactive: 0

Question: For UBE3A (UniProt Q05086), which “dose-dependent thermal stabilisation call” value is on record?
Answer: inactive: 0

Question: Which “dose-dependent thermal stabilisation call” value does the source give for TRAF6 (UniProt Q9Y4K3) here?
Answer: inactive: 0

Question: For TRIT1 (UniProt Q9H3H1), which “dose-dependent thermal stabilisation call” value is on record?
Answer: inactive: 0

Question: With UBE2E1 (UniProt P51965) as the target, how does the “dose-dependent thermal stabilisation call” value read?
Answer: inactive: 0

Question: Which “dose-dependent thermal stabilisation call” value does the source give for TRA2A (UniProt Q13595) here?
Answer: inactive: 0

Question: Which “dose-dependent thermal stabilisation call” value does the source give for TXNL4B (UniProt Q9NX01) here?
Answer: inactive: 0

Question: For UCHL5 (UniProt Q9Y5K5), which “dose-dependent thermal stabilisation call” value is on record?
Answer: inactive: 0

Question: With UNG (UniProt P13051) as the target, how does the “dose-dependent thermal stabilisation call” value read?
Answer: inactive: 0

Question: With USP34 (UniProt Q70CQ2) as the target, how does the “dose-dependent thermal stabilisation call” value read?
Answer: inactive: 0

Question: For TXNRD3 (UniProt Q86VQ6), which “dose-dependent thermal stabilisation call” value is on record?
Answer: inactive: 0

Question: How did the “dose-dependent thermal stabilisation call” value turn out when TTC1 (UniProt Q99614) was run?
Answer: inactive: 0

Question: With TRMT2A (UniProt Q8IZ69) as the target, how does the “dose-dependent thermal stabilisation call” value read?
Answer: inactive: 0

Question: UPF3B (UniProt Q9BZI7) was tested. Which “dose-dependent thermal stabilisation call” value did it give?
Answer: inactive: 0

Question: How did the “dose-dependent thermal stabilisation call” value turn out when TRAPPC3 (UniProt O43617) was run?
Answer: inactive: 0

Question: TTC39C (UniProt Q8N584) was tested. Which “dose-dependent thermal stabilisation call” value did it give?
Answer: inactive: 0

Question: How did the “dose-dependent thermal stabilisation call” value turn out when TSPAN31 (UniProt Q12999) was run?
Answer: inactive: 0

Question: For UBA2 (UniProt Q9UBT2), which “dose-dependent thermal stabilisation call” value is on record?
Answer: inactive: 0

Question: With TSG101 (UniProt Q99816) as the target, how does the “dose-dependent thermal stabilisation call” value read?
Answer: inactive: 0

Question: How did the “dose-dependent thermal stabilisation call” value turn out when TTC21B (UniProt Q7Z4L5) was run?
Answer: inactive: 0

Question: With TTPAL (UniProt Q9BTX7) as the target, how does the “dose-dependent thermal stabilisation call” value read?
Answer: inactive: 0

Question: TSGA14 (UniProt Q9BYV8) was tested. Which “dose-dependent thermal stabilisation call” value did it give?
Answer: inactive: 0

Question: How did the “dose-dependent thermal stabilisation call” value turn out when UBE2H (UniProt P62256) was run?
Answer: inactive: 0

Question: With UFM1 (UniProt P61960) as the target, how does the “dose-dependent thermal stabilisation call” value read?
Answer: inactive: 0

Question: Which “dose-dependent thermal stabilisation call” value does the source give for TUBB (UniProt P07437) here?
Answer: active: 1

Question: With TSEN54 (UniProt Q7Z6J9) as the target, how does the “dose-dependent thermal stabilisation call” value read?
Answer: inactive: 0

Question: TRPM7 (UniProt Q96QT4) was tested. Which “dose-dependent thermal stabilisation call” value did it give?
Answer: inactive: 0

Question: How did the “dose-dependent thermal stabilisation call” value turn out when TRIM14 (UniProt Q14142) was run?
Answer: inactive: 0

Question: USP13 (UniProt Q92995) was tested. Which “dose-dependent thermal stabilisation call” value did it give?
Answer: inactive: 0

Question: Which “dose-dependent thermal stabilisation call” value does the source give for USP28 (UniProt Q96RU2) here?
Answer: inactive: 0

Question: Which “dose-dependent thermal stabilisation call” value does the source give for TYMS (UniProt P04818) here?
Answer: inactive: 0

Question: UNC93B1 (UniProt Q9H1C4) was tested. Which “dose-dependent thermal stabilisation call” value did it give?
Answer: inactive: 0

Question: With TRAF2 (UniProt Q12933) as the target, how does the “dose-dependent thermal stabilisation call” value read?
Answer: inactive: 0

Question: With URM1 (UniProt Q9BTM9) as the target, how does the “dose-dependent thermal stabilisation call” value read?
Answer: inactive: 0

Question: Which “dose-dependent thermal stabilisation call” value does the source give for TXNL1 (UniProt O43396) here?
Answer: inactive: 0
